From paper PMC8329225
Results are given in words; binding and its absence hold for the method and conditions named. Binding seen in cells or lysates may run through a third protein.

Protein sequences, listed by entry. Tags and fused reporters are not part of them.
UniProt Q96P20: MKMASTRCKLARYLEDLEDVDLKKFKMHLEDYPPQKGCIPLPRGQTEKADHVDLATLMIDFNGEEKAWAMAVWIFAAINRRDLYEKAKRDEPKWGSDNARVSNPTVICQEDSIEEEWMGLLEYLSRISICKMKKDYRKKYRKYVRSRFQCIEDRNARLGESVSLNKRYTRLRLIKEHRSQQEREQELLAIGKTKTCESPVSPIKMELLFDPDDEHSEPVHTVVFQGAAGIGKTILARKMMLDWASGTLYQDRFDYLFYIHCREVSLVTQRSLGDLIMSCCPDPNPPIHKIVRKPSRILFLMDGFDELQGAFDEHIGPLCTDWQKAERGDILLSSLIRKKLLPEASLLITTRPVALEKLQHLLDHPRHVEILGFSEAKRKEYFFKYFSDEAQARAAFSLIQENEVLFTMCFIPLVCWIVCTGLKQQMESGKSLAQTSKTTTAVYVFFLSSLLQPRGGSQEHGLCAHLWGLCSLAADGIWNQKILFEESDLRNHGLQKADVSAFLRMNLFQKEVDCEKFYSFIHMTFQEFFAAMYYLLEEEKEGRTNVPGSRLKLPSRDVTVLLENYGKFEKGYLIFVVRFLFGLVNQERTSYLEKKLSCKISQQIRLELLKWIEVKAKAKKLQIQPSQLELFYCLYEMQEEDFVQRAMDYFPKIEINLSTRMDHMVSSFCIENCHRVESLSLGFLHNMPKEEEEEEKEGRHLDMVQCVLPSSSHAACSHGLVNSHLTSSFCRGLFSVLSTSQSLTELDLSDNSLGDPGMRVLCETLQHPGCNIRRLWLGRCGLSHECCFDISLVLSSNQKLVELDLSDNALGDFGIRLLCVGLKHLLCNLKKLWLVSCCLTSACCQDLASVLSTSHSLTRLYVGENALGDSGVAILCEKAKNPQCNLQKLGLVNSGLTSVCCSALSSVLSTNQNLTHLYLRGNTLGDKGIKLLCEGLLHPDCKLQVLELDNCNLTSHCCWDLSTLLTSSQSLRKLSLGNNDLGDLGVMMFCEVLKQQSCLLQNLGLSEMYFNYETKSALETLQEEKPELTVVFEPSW
UniProt P0DTC3: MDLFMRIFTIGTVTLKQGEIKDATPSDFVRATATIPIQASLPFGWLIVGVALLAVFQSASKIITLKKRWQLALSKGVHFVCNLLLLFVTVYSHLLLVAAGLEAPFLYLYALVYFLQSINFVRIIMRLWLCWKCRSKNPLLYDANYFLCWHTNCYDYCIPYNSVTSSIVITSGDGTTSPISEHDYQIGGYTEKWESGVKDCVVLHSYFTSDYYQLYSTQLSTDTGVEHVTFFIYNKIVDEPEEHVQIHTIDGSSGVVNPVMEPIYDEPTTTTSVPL

Target: NLRP3 protein (construct of Supplementary Fig. 4 and 5a, tag not shown) (UniProt Q96P20)
Assay: co-IP

With “SARS-CoV-2 3a protein (from UniProt P0DTC3 1-275)” as the substance, how does the binding read?
The binding was “no binding”.
